In all, about 33,000 sequences were measured (“E-score (-0.5 to 0.5)”: median about -0.015, highest 2% from about 0.3 on). The list shows a part of the results.
The sequences below were run against T1, Abf1 (UniProt P14164) (assay: PBM E-score (8-mer binding enrichment) (E-score (-0.5 to 0.5)); higher = stronger / more preferred TF binding). Settings: protein concentration: 200 nM; construct: GST-full length.
T1 sequence: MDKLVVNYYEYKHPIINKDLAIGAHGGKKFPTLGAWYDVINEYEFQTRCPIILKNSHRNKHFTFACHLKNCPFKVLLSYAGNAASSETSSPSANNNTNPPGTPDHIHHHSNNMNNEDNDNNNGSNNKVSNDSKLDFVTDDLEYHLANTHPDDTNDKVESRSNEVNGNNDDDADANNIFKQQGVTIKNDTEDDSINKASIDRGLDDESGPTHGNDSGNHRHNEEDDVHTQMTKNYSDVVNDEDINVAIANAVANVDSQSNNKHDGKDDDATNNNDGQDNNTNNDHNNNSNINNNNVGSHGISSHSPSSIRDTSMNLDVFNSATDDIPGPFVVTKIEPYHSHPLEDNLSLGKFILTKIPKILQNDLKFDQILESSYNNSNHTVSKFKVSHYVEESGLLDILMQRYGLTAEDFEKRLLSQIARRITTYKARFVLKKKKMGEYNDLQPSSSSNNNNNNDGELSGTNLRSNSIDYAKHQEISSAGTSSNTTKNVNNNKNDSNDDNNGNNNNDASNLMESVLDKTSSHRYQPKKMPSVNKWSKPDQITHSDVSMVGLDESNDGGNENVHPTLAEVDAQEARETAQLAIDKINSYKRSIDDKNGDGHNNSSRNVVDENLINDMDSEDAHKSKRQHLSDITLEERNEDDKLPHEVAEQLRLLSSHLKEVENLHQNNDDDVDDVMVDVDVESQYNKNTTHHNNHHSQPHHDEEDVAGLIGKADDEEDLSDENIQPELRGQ
Description: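 Universal 'all 10-mer' protein binding microarrays (Agilent AMADID 015681) probed with GST-tagged S. cerevisiae TFs (full-length or DBD) made by in vitro transcription/translation (PURExpress), about 100-200 nM. Bound TF was detected with fluorescent anti-GST. Each ungapped 8-mer (which stands for itself and its reverse complement) is scored by the PBM enrichment score (E-score), a modified Wilcoxon-Mann-Whitney statistic from -0.5 to +0.5, computed with the Universal PBM Analysis Suite. Scale: above 0.35 generally sequence-specific binding.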

Sequence	PBM E-score
CTTCGGCC	-0.0762
ATAGACAT	-0.0673
GCATGACA	0.207
CTGCGTTA	-0.0882
AACCAAAT	0.176
GATTGCCA	-0.0369
AGTCTTCA	-0.0415
AGTAGGGG	-0.163
AAAGTTGT	0.185
AACGAGGC	0.164
ATCCACAG	0.139
ATTATGAG	0.0866
CGAACGGC	0.233
ATTAGACG	0.199
ATTGAATA	0.27
GAGCAACC	-0.0662
GGCTGTGA	-0.0944
CCCCCGGG	-0.275
TCGTGACA	0.354
CATACCTA	-0.0506
ACGTGCCG	0.0127
CAATAGAG	-0.114
AGCACGGG	-0.0277
ACCGAAGG	-0.192
CGCGTAGA	-0.0598

Sequence	PBM E-score
AGAAGTAT	0.132
GAGGTGGA	-0.0921
GCCGAGGA	-0.0936
AGAAGGTC	0.0488
GGAGCAGA	-0.276
CGACAGAG	0.189
AAGACTGG	-0.188
CGAGTCCG	0.0426
TACTAAGA	0.123
AGATAGGC	-0.205
TGGAGCCA	-0.215
CCTCGTCG	0.175
CAGGGGTC	-0.0531
ACCACAGC	-0.171
AACTCGGC	0.123
GGGTCCAC	-0.15
ACTGCAGA	-0.0825
CTGCGGAC	-0.0224
CTAGTTAA	0.0372
CTGGAAAA	-0.164
CCAGCATA	-0.139
ACACTTCA	-0.0877
AGTCAAAA	0.0486
CTTCAGGA	-0.131
AGAGCTCG	0.137

Sequence	PBM E-score
AGGCTTGC	-0.167
GTCTCGGA	-0.0432
CCTGATAG	-0.281
ATCGGTCC	-0.295
TCCTAGGA	-0.244
TGGGATAA	-0.0897
ACTTTACC	0.0126
TATGCACA	0.018
GATATTCC	0.226
GGCGCGTA	-0.136
CCCCCCTA	-0.259
CGCATATA	-0.0268
ATGATTCC	0.0729
GAGTCGAA	-0.0294
CTTCATGC	-0.154
AGCGTCAC	-0.00719
AGATCAGG	-0.252
GTTCTATA	0.103
CTTGACCC	-0.0886
ACCTCAAG	-0.13
CATTGAAC	0.147
TAAAGTAA	0.0709
AATGACAT	0.39
CGCTAAAA	0.11
GTGCGCAC	0.15

Sequence	PBM E-score
CCCATAGA	-0.302
AAGAGCAA	-0.196
ACATCGGT	-0.00711
AAGTGACG	0.352
GAAAGTAA	0.00787
ACCGCCAG	-0.104
CTTCTTTA	0.12
CACACGAA	0.341
AAACCCGC	0.131
ATGGACTA	-0.0421
CGTATGAA	0.426
ATGCAATC	-0.0506
ATTCCAAT	0.0599
AAGGCGCG	-0.195
CAGGCCGC	-0.0425
GTAAATTA	-0.0489
ACCTTCAG	-0.109
ACCAGAAG	-0.0311
ACAGACTA	-0.14
TGGTTACA	0.11
ATACCTTC	-0.00465
CCGGCTCA	-0.0605
ATGCCGAG	-0.0873
ACGCCGAC	-0.171
AAATATCC	0.0659

Sequence	PBM E-score
CGGGTGGA	-0.0431
TCGGTTAA	0.0499
CTGCGAGC	0.0153
ATGGCTTC	0.0298
ACTGAGAC	-0.04
ATTACGCC	0.016
CTCGATTC	-0.104
GCAAGTAA	-0.115
AACCGAAT	0.0714
ATCTGTCA	0.212
AAATTGGT	0.199
ATCTTCAG	0.0575
GTGTGGCA	-0.082
ATTTCCGG	0.0492
CTGCCGGA	0.0521
ACGTGGGC	-0.00691
GCAGGCTA	-0.181
CACCTTGG	-0.144
CTACCTAC	0.165
CACAGGTA	-0.0274
AGAGGAGA	-0.144
CAACGAAC	0.14
AGAAATTA	0.115
AACTACTT	-0.144
CAAGCGGG	-0.176

Sequence	PBM E-score
GGGGTCAC	-0.0616
GTGGAACA	0.164
CTGCCGGC	-0.257
TACCCACA	-0.134
GAAACAGA	-0.0148
CAATAACC	0.0104
ATGCCGGA	-0.0377
GGCCGGTA	-0.0146
TAAGGGTA	-0.196
TCTCCCCA	-0.172
ACCCTTCA	-0.0788
CCTTATAG	-0.00997
CCATATCG	0.146
ACTAAGCC	0.0159
TAGATTGA	0.0666
ACGCTGGC	-0.0435
TTATGCAA	-0.00382
ATTGTACA	0.0354
AAGTACGC	-0.0592
CTTGAGGC	-0.108
AACAGTAC	0.02
GTGACAGA	0.359
ACTGAACG	0.036
CAAAGGCC	-0.194
ACGGGCCA	-0.0891

Fetched one by one from the entries so far (5):
Sequence	PBM E-score
ACGCTGGC	-0.0435
TAAGGGTA	-0.196
GAAACAGA	-0.0148
ACGGGCCA	-0.0891
GTGACAGA	0.359

The list goes on:

Sequence	PBM E-score
CGCCGGCA	0.0385
CCGACCCA	-0.00172
GACTGTGC	0.0177
CCCCTGCG	-0.252
GAAACGAC	0.153
AAAAAAAC	0.0743
ACCCCGTA	0.0548
ACTTGAGG	-0.0874
GCTGCACA	-0.173
ACCTAACA	0.0963
CAAGGACG	0.0458
ATGTCTGG	-0.0676
CCTGTCGC	-0.133
AGAATTCT	0.238
AGGGAATG	-0.0277
AGACTTTA	0.0584
AGCACAGA	-0.03
GAAATCTA	-0.0869
AGACAGTG	-0.0919
GAATAGCA	-0.229
CCTTTTTC	-0.166
GTAGTTTA	0.0884

A few values from above:
Under PBM E-score, AAAAAAAC reads 0.0743
Under PBM E-score, GTAGTTTA reads 0.0884

Reference: the supplement of paper PMC3334620
